Two molecules from publication PMC10926643 can be followed below.

No constants are given. Whether binding was seen depends on the method and setting. Binding seen in cells or lysates may run through a third protein. Some entries that bind do so weakly or less than the wild type. For part of these data: Where a sequence is shown, tags or fusion partners need not be part of it.

One experiment has as its target T1, FGF12-GFP.myc (UniProt P61328).
T1 sequence: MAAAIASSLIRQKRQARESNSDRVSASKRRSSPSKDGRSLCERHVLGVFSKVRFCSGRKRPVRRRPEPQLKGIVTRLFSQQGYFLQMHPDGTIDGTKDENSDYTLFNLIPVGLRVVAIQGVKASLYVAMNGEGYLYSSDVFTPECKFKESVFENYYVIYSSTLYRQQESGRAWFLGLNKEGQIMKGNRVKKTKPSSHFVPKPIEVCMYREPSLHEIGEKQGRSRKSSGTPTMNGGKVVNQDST
The experiment can be described thus: proximity ligation; in situ PLA in fixed U2OS-FGF12-GFP.myc cells with anti-FGF12, anti-NOLC1 and anti-TCOF1 antibodies; cells treated with siRNA against galectin-1 or non-targeting siRNA; high content quantitative confocal microscopy, number of PLA spots per cell.

Experiment [1] concerns the target T2, treacle ribosome biogenesis factor 1, TCOF1 (human (endogenous in U2OS)) (UniProt Q13428).
T2 sequence: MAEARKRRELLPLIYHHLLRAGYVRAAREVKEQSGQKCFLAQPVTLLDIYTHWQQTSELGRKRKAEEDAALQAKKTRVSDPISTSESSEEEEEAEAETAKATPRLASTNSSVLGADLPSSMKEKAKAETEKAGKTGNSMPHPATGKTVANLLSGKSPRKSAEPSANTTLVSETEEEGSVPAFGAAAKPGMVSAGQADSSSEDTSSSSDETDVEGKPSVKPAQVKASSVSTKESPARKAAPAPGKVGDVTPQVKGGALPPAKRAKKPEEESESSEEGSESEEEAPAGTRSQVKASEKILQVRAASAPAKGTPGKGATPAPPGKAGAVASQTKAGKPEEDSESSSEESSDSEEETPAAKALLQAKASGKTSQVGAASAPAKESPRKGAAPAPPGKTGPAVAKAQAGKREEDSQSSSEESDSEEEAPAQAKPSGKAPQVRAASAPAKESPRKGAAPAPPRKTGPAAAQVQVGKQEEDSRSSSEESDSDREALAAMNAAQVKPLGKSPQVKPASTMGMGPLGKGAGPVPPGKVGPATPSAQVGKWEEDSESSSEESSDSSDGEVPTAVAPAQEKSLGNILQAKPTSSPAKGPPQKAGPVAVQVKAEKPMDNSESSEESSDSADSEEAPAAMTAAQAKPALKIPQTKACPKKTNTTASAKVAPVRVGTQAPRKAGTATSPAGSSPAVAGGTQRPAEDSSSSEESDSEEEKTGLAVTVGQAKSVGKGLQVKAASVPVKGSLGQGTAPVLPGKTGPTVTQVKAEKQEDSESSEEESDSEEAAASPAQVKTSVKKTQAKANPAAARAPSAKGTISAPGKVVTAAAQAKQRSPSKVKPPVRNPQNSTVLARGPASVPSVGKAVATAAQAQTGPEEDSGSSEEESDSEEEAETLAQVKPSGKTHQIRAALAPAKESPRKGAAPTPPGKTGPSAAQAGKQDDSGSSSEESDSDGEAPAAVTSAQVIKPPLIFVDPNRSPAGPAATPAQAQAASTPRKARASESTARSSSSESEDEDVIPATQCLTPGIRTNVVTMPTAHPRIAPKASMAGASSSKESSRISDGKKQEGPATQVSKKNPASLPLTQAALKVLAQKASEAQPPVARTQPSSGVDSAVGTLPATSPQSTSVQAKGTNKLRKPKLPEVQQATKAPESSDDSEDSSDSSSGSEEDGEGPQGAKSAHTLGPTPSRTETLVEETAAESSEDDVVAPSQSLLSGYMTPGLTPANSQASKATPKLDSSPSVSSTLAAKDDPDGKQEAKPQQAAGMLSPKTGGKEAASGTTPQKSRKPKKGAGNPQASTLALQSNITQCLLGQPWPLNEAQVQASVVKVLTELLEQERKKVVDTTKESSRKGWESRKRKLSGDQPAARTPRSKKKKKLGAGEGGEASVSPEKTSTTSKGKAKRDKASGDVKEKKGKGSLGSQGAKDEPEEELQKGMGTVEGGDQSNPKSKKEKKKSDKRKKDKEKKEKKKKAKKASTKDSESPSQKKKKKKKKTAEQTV
Described as above.

B1: treacle ribosome biogenesis factor 1, TCOF1 (protein, UniProt Q13428 1-1488)
chain: T2 sequence
For B1, in the experiment with FGF12-GFP.myc, the binding result is “binds”.

B2: nucleolar and coiled-body phosphoprotein 1, NOLC1 (protein, UniProt Q14978 1-699)
chain: MADAGIRRVVPSDLYPLVLGFLRDNQLSEVANKFAKATGATQQDANASSLLDIYSFWLKSAKVPERKLQANGPVAKKAKKKASSSDSEDSSEEEEEVQGPPAKKAAVPAKRVGLPPGKAAAKASESSSSEESSDDDDEEDQKKQPVQKGVKPQAKAAKAPPKKAKSSDSDSDSSSEDEPPKNQKPKITPVTVKAQTKAPPKPARAAPKIANGKAASSSSSSSSSSSSDDSEEEKAAATPKKTVPKKQVVAKAPVKAATTPTRKSSSSEDSSSDEEEEQKKPMKNKPGPYSSVPPPSAPPPKKSLGTQPPKKAVEKQQPVESSEDSSDESDSSSEEEKKPPTKAVVSKATTKPPPAKKAAESSSDSSDSDSSEDDEAPSKPAGTTKNSSNKPAVTTKSPAVKPAAAPKQPVGGGQKLLTRKADSSSSEEESSSSEEEKTKKMVATTKPKATAKAALSLPAKQAPQGSRDSSSDSDSSSSEEEEEKTSKSAVKKKPQKVAGGAAPSKPASAKKGKAESSNSSSSDDSSEEEEEKLKGKGSPRPQAPKANGTSALTAQNGKAAKNSEEEEEEKKKAAVVVSKSGSLKKRKQNEAAKEAETPQAKKIKLQTPNTFPKRKKGEKRASSPFRRVREEEIEVDSRVADNSFDAKRGAAGDWGERANQVLKFTKGKSFRHEKTKKKRGSYRGGSISVQVNSIKFDSE
As to B2, the binding entry (with FGF12-GFP.myc; in experiment [1]) was “binds” throughout.
